Reference: the supplement of paper PMC12067093, “Discovery and optimisation of a covalent ligand for TRIM25 and its application to targeted protein ubiquitination” (Chemical Science, 2025)
The other results are listed elsewhere or left out.

Sequences of proteins named here, by UniProt entry; tags and fusion partners are left off. A change or cut given only in a name is not applied to a line headed by its entry.
UniProt Q96AE7: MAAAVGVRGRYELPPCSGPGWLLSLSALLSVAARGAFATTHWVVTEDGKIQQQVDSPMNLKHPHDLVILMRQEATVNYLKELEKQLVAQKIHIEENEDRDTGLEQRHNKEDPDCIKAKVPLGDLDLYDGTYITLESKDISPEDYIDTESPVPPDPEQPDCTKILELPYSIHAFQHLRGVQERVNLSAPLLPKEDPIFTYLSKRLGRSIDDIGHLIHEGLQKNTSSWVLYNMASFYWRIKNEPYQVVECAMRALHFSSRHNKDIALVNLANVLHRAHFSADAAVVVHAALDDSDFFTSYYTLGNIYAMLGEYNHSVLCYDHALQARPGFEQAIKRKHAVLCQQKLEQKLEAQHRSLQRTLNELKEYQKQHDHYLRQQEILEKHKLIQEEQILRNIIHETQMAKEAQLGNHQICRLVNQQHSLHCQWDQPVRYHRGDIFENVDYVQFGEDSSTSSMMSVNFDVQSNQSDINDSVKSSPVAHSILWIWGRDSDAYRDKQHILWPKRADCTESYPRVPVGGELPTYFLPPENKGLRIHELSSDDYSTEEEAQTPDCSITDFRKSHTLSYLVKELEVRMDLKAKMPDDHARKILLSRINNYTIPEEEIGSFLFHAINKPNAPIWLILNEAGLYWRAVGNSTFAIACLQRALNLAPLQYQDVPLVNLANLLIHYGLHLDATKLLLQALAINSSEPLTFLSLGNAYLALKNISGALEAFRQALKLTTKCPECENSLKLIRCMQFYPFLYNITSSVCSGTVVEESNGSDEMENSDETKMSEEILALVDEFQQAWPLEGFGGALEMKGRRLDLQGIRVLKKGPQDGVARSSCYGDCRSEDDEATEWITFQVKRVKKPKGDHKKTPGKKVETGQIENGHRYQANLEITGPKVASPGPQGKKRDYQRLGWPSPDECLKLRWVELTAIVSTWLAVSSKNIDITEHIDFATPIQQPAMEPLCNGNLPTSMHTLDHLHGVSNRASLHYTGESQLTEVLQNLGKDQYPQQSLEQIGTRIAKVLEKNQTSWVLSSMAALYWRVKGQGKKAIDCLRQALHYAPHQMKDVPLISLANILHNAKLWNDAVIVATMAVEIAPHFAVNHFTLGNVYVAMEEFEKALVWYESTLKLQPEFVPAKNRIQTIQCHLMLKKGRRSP
UniProt Q9BRA2: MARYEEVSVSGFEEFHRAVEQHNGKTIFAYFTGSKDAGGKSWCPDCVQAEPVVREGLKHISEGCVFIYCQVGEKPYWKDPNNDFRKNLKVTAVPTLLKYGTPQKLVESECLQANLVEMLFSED
UniProt Q2NL82: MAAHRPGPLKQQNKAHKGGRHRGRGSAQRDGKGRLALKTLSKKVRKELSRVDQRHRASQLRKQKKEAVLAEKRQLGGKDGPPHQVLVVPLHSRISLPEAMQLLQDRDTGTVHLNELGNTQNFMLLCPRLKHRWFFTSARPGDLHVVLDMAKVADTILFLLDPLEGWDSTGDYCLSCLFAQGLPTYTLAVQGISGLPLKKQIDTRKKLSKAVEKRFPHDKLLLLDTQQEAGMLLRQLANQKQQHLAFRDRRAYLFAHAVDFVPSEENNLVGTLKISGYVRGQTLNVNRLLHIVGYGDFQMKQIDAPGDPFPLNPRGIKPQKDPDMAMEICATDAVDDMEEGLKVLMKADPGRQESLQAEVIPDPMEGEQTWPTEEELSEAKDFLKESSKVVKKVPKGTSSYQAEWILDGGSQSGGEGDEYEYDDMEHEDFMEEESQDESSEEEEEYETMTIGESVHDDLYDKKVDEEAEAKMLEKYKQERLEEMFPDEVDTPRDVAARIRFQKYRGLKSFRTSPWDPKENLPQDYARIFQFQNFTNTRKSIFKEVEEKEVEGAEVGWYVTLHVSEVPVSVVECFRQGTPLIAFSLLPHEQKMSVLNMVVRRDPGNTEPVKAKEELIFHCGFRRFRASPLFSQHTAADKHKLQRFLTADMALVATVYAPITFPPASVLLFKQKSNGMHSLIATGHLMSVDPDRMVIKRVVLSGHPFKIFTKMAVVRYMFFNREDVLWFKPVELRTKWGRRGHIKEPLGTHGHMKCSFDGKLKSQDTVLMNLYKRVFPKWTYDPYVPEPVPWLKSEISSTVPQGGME
UniProt Q99614: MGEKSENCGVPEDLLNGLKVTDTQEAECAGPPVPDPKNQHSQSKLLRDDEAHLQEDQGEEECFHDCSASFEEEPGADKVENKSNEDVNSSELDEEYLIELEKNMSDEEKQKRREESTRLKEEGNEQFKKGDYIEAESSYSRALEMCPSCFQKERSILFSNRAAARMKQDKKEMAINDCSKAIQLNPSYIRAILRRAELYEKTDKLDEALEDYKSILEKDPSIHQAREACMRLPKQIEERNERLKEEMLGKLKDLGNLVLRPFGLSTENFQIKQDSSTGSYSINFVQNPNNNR
UniProt Q96AY4: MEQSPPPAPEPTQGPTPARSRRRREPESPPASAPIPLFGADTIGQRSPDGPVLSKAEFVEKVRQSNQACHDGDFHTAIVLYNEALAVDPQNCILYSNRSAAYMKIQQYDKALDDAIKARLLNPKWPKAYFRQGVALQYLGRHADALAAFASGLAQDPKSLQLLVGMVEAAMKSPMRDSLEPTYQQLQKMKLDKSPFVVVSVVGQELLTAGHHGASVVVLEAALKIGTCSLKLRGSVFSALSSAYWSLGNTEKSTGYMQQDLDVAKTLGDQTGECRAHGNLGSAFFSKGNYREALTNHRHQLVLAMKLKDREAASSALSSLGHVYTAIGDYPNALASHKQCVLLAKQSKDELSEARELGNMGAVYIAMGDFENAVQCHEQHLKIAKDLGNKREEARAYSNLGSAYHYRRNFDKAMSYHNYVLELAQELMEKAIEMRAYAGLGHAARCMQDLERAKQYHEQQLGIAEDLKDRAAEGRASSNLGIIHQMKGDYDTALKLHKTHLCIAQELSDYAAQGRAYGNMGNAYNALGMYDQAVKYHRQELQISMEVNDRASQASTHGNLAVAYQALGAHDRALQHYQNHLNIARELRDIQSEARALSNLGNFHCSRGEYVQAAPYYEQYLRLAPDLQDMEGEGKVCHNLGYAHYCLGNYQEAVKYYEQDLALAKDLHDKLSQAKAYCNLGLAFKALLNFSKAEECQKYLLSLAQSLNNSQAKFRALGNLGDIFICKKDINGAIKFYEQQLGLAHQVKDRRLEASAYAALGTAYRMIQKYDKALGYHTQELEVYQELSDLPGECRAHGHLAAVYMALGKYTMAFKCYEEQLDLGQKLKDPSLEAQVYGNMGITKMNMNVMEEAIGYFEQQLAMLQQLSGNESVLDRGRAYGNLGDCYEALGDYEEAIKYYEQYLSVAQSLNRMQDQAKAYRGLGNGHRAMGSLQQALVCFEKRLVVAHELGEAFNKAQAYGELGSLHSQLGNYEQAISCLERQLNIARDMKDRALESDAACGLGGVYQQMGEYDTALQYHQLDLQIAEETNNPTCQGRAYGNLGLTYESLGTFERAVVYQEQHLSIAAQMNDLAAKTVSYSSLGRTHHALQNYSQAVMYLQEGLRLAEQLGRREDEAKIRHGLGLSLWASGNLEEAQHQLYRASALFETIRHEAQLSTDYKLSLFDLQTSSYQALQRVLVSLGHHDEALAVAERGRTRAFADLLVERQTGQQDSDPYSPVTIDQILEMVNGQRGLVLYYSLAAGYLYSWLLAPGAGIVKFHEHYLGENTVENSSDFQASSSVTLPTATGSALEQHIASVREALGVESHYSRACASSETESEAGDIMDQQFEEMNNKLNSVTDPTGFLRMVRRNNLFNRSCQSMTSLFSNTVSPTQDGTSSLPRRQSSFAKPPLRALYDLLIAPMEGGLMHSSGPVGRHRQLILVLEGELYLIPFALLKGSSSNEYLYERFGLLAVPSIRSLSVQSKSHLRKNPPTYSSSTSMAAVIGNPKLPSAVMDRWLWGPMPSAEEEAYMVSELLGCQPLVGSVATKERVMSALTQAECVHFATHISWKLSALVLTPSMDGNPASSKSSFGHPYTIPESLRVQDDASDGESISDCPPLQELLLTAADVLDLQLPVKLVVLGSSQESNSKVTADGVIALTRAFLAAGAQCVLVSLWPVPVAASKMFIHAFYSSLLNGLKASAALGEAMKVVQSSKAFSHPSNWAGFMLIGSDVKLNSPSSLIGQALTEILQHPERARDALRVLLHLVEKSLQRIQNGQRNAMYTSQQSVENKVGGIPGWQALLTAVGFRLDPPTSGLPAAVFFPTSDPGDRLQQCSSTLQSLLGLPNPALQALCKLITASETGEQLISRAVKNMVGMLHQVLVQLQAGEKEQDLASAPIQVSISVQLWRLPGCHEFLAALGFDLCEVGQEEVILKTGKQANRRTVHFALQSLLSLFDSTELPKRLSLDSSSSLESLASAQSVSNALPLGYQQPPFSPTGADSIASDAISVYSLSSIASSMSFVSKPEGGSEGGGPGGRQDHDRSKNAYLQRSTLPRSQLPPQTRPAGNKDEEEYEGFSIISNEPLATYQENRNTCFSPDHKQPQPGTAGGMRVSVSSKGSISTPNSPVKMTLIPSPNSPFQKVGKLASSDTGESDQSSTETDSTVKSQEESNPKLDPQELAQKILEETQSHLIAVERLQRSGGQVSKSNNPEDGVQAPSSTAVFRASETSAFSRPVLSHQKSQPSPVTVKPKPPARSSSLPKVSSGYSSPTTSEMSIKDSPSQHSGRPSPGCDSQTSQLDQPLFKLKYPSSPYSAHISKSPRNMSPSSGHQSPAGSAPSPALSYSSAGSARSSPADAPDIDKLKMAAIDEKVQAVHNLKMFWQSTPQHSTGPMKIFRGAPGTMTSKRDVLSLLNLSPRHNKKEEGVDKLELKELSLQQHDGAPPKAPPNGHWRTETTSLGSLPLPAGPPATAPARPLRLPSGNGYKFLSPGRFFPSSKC
UniProt Q14166: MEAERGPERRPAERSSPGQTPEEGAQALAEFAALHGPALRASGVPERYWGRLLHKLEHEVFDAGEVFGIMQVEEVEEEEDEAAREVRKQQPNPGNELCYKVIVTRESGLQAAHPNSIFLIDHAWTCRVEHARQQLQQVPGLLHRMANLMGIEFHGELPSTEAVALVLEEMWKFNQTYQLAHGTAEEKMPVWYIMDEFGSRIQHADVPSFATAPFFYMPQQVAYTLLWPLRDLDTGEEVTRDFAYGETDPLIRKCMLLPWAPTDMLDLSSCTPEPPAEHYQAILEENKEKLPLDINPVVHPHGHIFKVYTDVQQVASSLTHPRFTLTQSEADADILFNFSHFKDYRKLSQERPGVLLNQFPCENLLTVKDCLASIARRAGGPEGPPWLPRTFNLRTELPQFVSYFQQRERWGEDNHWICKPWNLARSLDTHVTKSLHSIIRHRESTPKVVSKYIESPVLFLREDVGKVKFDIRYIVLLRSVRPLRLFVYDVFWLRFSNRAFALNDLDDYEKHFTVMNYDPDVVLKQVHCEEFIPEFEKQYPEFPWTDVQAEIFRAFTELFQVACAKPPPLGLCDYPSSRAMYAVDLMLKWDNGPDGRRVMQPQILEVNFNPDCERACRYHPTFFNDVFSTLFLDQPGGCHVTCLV
UniProt Q8N584: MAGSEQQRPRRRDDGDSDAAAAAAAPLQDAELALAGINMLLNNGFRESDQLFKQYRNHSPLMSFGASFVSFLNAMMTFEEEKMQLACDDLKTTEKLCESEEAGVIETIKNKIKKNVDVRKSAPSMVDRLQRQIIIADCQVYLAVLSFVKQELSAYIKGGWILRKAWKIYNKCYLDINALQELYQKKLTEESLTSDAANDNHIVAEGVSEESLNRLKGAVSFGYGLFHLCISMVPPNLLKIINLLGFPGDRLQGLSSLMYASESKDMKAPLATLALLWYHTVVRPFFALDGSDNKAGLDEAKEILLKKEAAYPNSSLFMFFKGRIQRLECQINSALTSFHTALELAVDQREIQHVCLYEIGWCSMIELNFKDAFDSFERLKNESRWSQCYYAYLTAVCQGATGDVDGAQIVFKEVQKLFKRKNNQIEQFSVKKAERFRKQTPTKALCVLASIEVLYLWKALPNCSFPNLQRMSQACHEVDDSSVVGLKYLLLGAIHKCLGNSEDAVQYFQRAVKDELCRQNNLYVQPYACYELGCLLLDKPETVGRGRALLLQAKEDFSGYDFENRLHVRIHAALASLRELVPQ
UniProt O75648: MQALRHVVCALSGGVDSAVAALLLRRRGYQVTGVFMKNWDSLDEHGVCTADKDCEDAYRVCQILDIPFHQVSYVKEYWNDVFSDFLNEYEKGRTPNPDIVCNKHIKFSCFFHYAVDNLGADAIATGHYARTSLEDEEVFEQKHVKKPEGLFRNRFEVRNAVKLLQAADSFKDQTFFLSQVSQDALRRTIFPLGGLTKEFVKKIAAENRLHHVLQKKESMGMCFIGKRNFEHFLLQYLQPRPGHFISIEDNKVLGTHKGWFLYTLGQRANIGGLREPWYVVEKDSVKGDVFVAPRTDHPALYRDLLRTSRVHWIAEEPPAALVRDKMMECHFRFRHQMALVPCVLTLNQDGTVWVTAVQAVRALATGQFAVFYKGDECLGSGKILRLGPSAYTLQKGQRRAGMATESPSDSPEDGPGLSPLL

Compound: Cc1cc(ccc1-c1ccccc1)C(=O)N1CCCN(CC1)C(=O)CCl [compound 10]
Test: probe-labelled cysteine peptide fold change vs DMSO (competition) (log2 fold change); higher = less target engagement (more negative = stronger competition)
Settings: THP-1, incubation time: 4 h
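Note: competitive profiling in live THP-1 cells: cysteine peptides tagged with an iodoacetamide desthiobiotin (IA-DTB) probe, intensity after compound treatment relative to DMSO-treated cells.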

Target	probe-labelled cysteine peptide fold change (10 µM)	probe-labelled cysteine peptide fold change (50 µM)
TTC17_Q96AE7_506_RADCTESYPR (UniProt Q96AE7)	0.0661	0.13
TXNDC17_Q9BRA2_69_HISEGCVFIYCQVGEK (UniProt Q9BRA2)	-0.0351	-0.0869
TUBB6_Q9BUF5_127+129_ECEHCDCLQGFQLTHSLGGGTGSGMGTLLISK (UniProt Q9BUF5)	0.132	-0.437
TXLNG_Q9NUQ3_127_TDPPDGQQDSECNR (UniProt Q9NUQ3)	-0.25	-0.355
TTYH3_Q9C0H2_486_CENTPLIGR (UniProt Q9C0H2)	-0.241	-0.228
TRNAU1AP_Q9NX07_48_LTGIPAGYCFVEFADLATAEK (UniProt Q9NX07)	0.219	0.558
TSR1_Q2NL82_618_AKEELIFHCGFR (UniProt Q2NL82)	0.0728	0.00431
TTC1_Q99614_149_ALEMCPSCFQK (UniProt Q99614)	0.285	-0.0752
TUBGCP2_Q9BSJ2_350_TMDILASLATSVDKGECLGGSTLSLLHDR (UniProt Q9BSJ2)	-0.0286	-0.273
TUBB6_Q9BUF5_127_ECEHCDCLQGFQLTHSLGGGTGSGMGTLLISK (UniProt Q9BUF5)	0.0743	-0.111
TTC5_Q8N0Z6_125_KGDVAAAHTCFSGALTHCR (UniProt Q8N0Z6)	0.227	-0.114
TROVE2_P10155_102_QEPMLFALAICSQCSDISTK (UniProt P10155)	-0.00159	-0.0701
TTF2_Q9UNY4_1118_FVCEGTVEEK (UniProt Q9UNY4)	-0.115	-0.109
TXNDC11_Q6PKC3_568_KCEVDAPSSVPHIEENR (UniProt Q6PKC3)	-0.231	-0.332
TTF1_Q15361_445_KTQACLASK (UniProt Q15361)	-0.039	-0.411
TTF2_Q9UNY4_522_SACQVTAGGSSQCYR (UniProt Q9UNY4)	0.0142	-0.629
TTC28_Q96AY4_794_ALGYHTQELEVYQELSDLPGECR (UniProt Q96AY4)	-0.0169	-0.0577
TST_Q16762_64_HVPGASFFDIEECRDTASPYEMMLPSEAGFAEYVGR (UniProt Q16762)	-0.142	-0.425
TUBA4A_P68366_54_TIGGGDDSFTTFFCETGAGK (UniProt P68366)	-0.0287	-0.345
TTLL12_Q14166_528_QVHCEEFIPEFEK (UniProt Q14166)	-0.0693	-0.0645
TTC39C_Q8N584_97_LCESEEAGVIETIK (UniProt Q8N584)	-0.142	0.0415

Target	probe-labelled cysteine peptide fold change (10 µM)	probe-labelled cysteine peptide fold change (50 µM)
TTI2_Q6NXR4_185_EVLTSLLQVTECGSVAGFLHGENEDEK (UniProt Q6NXR4)	-0.179	0.0887
TTLL12_Q14166_370_DCLASIAR (UniProt Q14166)	-0.0521	-0.113
TTC27_Q6P3X3_743_CDTQSNCWEK (UniProt Q6P3X3)	-0.181	-0.602
TTC1_Q99614_178_EMAINDCSK (UniProt Q99614)	0.303	-0.13
TXLNG_Q9NUQ3_101_NLVSPAYCTQESR (UniProt Q9NUQ3)	-0.418	-0.642
TTC21B_Q7Z4L5_72_QDVSLCSLLALIYAHK (UniProt Q7Z4L5)	0.0834	0.332
TRRAP_Q9Y4A5_420_NIDDESLPSSIQTMSCK (UniProt Q9Y4A5)	0.467	0.344
TWSG1_Q9GZX9_208_WFHNACCECIGPECIDYGSK (UniProt Q9GZX9)	-0.0707	0.0707
TUFM_P49411_222_ELLTEFGYKGEETPVIVGSALCALEGRDPELGLK (UniProt P49411)	-0.102	0.0662
TUBA1C_Q9BQE3_376_AVCMLSNTTAVAEAWAR (UniProt Q9BQE3)	-0.038	-0.00181
TTC37_Q6PGP7_715_ADVSCLWK (UniProt Q6PGP7)	-0.171	-0.0251
TSC2_P49815_1026_NLHLELTETCLDMMAR (UniProt P49815)	0.171	-0.0622
TUBB6_Q9BUF5_129_ECEHCDCLQGFQLTHSLGGGTGSGMGTLLISK (UniProt Q9BUF5)	-0.0498	-0.084
TTK_P33981_322_PSGNDSCELR (UniProt P33981)	-0.155	-0.611
TTF2_Q9UNY4_13_CPEHGTFCFLK (UniProt Q9UNY4)	0.253	-0.144
TTLL12_Q14166_361_PGVLLNQFPCENLLTVK (UniProt Q14166)	-0.00778	-0.111
TSFM_P43897_149_FQLLVQQVALGTMMHCQTLK (UniProt P43897)	-0.0922	-0.0243
TTLL12_Q14166_612_RVMQPQILEVNFNPDCER (UniProt Q14166)	0.0816	-0.189
TSR1_Q2NL82_753_CSFDGK (UniProt Q2NL82)	-0.291	-0.317
TRRAP_Q9Y4A5_1315_HQPANAQIGLMEGNTFCTTLQPR (UniProt Q9Y4A5)	-0.0509	0.406
TTC7A_Q9ULT0_299_HLAGVLLHSLSEECYWSPLSHPLPEFMGK (UniProt Q9ULT0)	0.125	0.22

Some of the entries above in a different format:
TXNDC11_Q6PKC3_568_KCEVDAPSSVPHIEENR (UniProt Q6PKC3)
  probe-labelled cysteine peptide fold change (10 µM): -0.231; probe-labelled cysteine peptide fold change (50 µM): -0.332
TSR1_Q2NL82_753_CSFDGK (UniProt Q2NL82)
  probe-labelled cysteine peptide fold change (10 µM): -0.291; probe-labelled cysteine peptide fold change (50 µM): -0.317

Further results:

Target	probe-labelled cysteine peptide fold change (10 µM)	probe-labelled cysteine peptide fold change (50 µM)
TRRAP_Q9Y4A5_1879_ACVDPACK (UniProt Q9Y4A5)	-0.0235	0.0187
TRUB1_Q8WWH5_269_ELSSCANVLELTR (UniProt Q8WWH5)	-0.038	-0.134
TRMU_O75648_109_FSCFFHYAVDNLGADAIATGHYAR (UniProt O75648)	-0.0238	-0.352
TTF2_Q9UNY4_648_DDSCDFTSHGTLIICPASLIHHWK (UniProt Q9UNY4)	0.108	0.108
TTC30B_Q8N4P2_619_DSVIQECVQFLEHCELHGR (UniProt Q8N4P2)	0.0301	0.294
TUBA1B_P68363_347_RSIQFVDWCPTGFK (UniProt P68363)	0.0304	-0.0451
TRPM7_Q96QT4_1426_DQETVCSK (UniProt Q96QT4)	-0.298	-0.32
TSPAN2_O60636_164_ESSEQVQPTCPK (UniProt O60636)	-0.411	-0.422
TTC14_Q96N46_165_DIAHLEITALCPLR (UniProt Q96N46)	0.0492	0.0822
TRMT61A_Q96FX7_209_FCSFSPCIEQVQR (UniProt Q96FX7)	-0.732	-0.955
TXNDC5_Q8NBS9_217_FFAPWCGHCK (UniProt Q8NBS9)	-0.617	-0.661
TSFM_P43897_315_FECGEGEEAAETE (UniProt P43897)	-0.0477	0.106
TUT4_Q5TAX3_825_KQDDLAPSETCLK (UniProt Q5TAX3)	-0.195	-0.0583
TTC37_Q6PGP7_1349_ISEAETLCTK (UniProt Q6PGP7)	-0.0846	-0.0793
TTC39C_Q8N584_463_ALPNCSFPNLQR (UniProt Q8N584)	-0.0698	0.209
TRPM4_Q8TD43_759_QSGRPGCCGGR (UniProt Q8TD43)	-0.788	-2.09
TXNIP_Q9H3M7_36_VIVEVCEVTR (UniProt Q9H3M7)	0.0116	-0.861
TTC37_Q6PGP7_600_DFNCWESLGEAYLSR (UniProt Q6PGP7)	0.129	0.156
TTC13_Q8NBP0_505_DVLHQNFESYKPEVQELICVADR (UniProt Q8NBP0)	-0.249	0.0531
TUBB6_Q9BUF5_12_MREIVHIQAGQCGNQIGTK (UniProt Q9BUF5)	-0.101	-0.321
TTC5_Q8N0Z6_29_DCYFETHSVEDAGR (UniProt Q8N0Z6)	0.126	-0.0526

Target	probe-labelled cysteine peptide fold change (10 µM)	probe-labelled cysteine peptide fold change (50 µM)
TRPM2_O94759_693_AIGVFTECYR (UniProt O94759)	0.122	0.144
TRRAP_Q9Y4A5_2876_EALVQVEVSCPK (UniProt Q9Y4A5)	0.176	0.215
TUT4_Q5TAX3_458_VPVVVCR (UniProt Q5TAX3)	0.0919	0.153
TXNDC17_Q9BRA2_46_SWCPDCVQAEPVVR (UniProt Q9BRA2)	-0.0603	-0.228
TTC28_Q96AY4_816_CYEEQLDLGQK (UniProt Q96AY4)	0.248	0.196
TRPV2_Q9Y5S1_134_DGVNACILPLLQIDR (UniProt Q9Y5S1)	-0.0797	0.168
TTF2_Q9UNY4_37_ADTCSFVR (UniProt Q9UNY4)	0.205	-0.217
TTC39C_Q8N584_475_MSQACHEVDDSSVVGLK (UniProt Q8N584)	-0.0327	-0.0908
TSEN2_Q8NCE0_439_EMESPECMK (UniProt Q8NCE0)	0.0949	0.0481
TTC17_Q96AE7_412_EAQLGNHQICR (UniProt Q96AE7)	0.172	0.378
TRMU_O75648_9_HVVCALSGGVDSAVAALLLR (UniProt O75648)	-0.0925	0.225
TTI1_O43156_185+187_CLQVLLLQCDCQDHPR (UniProt O43156)	0.296	-0.0229
TTC1_Q99614_28_VTDTQEAECAGPPVPDPK (UniProt Q99614)	-0.117	-0.167
TTC1_Q99614_146+149_ALEMCPSCFQK (UniProt Q99614)	0.455	-0.31
TTC28_Q96AY4_726_ALGNLGDIFICK (UniProt Q96AY4)	0.263	-0.0137
TSC2_P49815_1587_DCQPDK (UniProt P49815)	0.0812	-0.342
TUT4_Q5TAX3_709_YFACPQTK (UniProt Q5TAX3)	-0.272	0.0569
TRMT61B_Q9BVS5_396_ISEVIVRDWLVCLAK (UniProt Q9BVS5)	0.164	-0.0885
TSFM_P43897_64_TGYSFVNCK (UniProt P43897)	0.0248	-0.153
TTC27_Q6P3X3_374_NNPVHTLTEVELLAFTSCLLSQPK (UniProt Q6P3X3)	0.167	0.406
TXNIP_Q9H3M7_49_ILACGVAK (UniProt Q9H3M7)	0.142	-0.747
